Results reported in patent publication US20030087394.

Sequences of proteins named here, by UniProt entry; tags and fusion partners are left off.
UniProt A0A1U7RCQ9, entry or part of it: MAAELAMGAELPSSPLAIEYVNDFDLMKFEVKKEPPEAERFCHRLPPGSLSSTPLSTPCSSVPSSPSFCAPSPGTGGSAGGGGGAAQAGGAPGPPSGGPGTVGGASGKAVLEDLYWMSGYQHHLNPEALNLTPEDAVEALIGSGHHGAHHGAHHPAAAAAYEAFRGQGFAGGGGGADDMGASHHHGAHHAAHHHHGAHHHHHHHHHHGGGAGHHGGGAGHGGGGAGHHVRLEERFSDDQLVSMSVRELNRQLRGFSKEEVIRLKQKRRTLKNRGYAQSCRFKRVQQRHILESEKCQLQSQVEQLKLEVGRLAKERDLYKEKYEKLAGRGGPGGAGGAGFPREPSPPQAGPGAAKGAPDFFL

Assays:
[1] = tested on: RIPE3b2 factor (small Maf, MafF/G/K); assay: competition with a labelled probe; conditions: 50-fold excess, protein in an extract, protein details: HIT T-15 nuclear extract
[2] = biological target: RIPE3b1 factor (endogenous mMafA) (UniProt A0A1U7RCQ9); assay: competition with a labelled probe; conditions: 50-fold excess, protein in an extract, protein details: HIT T-15 nuclear extract
[3] = variant of alphaA-crystallin Maf site wild type

Row | Sequence | binding result [1] | binding result ([2]; also bound as probe) | binding result [1, 3] | binding result [2, 3]
1 | ACGTAGCATTCCAGCTGCTGACGGTGCAGCCTCTCCCCCGAG (double strand) [alphaA-crystallin Maf site wild type] | binds | binds | – | –
2 | ACGTAGCATTCCAGCTGCTGCCGGTGCAGCCTCTCCCCCGAG (double strand) [alphaA-crystallin Maf site mutant] | – | – | no binding | no binding

Results from cells or extracts need not show a direct contact. Negatives hold for the conditions tested. For some of these results: For at least one entry, the source does not settle the construct or the ends of the probe.
